The text below walks through data of the SangsterLogP compilation.

The series can be described thus: method code SF, from Hansch, C. & Leo, A. (1987). Log P database [Dataset]. Pomona College Medicinal Chemistry Project.

As usually defined, the logP is the decadic logarithm of the partition coefficient of the neutral form, usually between octanol and water. The low end stands for a more hydrophilic compound, the high end for a more lipophilic compound. Turning to `C[C@@H]1C[C@H]2[C@@H]3C[C@H](F)C4=CC(=O)C=C[C@]4(C)[C@@]3(F)[C@@H](O)C[C@]2(C)[C@@]1(O)C(=O)CO`, the logP was found to be 1.94.
Then `O=C(Nc1ccccc1)c1ccccc1`, with 2.62.
